Sequences of proteins named here, by UniProt entry; tags and fusion partners are left off.
UniProt Q8WVS4: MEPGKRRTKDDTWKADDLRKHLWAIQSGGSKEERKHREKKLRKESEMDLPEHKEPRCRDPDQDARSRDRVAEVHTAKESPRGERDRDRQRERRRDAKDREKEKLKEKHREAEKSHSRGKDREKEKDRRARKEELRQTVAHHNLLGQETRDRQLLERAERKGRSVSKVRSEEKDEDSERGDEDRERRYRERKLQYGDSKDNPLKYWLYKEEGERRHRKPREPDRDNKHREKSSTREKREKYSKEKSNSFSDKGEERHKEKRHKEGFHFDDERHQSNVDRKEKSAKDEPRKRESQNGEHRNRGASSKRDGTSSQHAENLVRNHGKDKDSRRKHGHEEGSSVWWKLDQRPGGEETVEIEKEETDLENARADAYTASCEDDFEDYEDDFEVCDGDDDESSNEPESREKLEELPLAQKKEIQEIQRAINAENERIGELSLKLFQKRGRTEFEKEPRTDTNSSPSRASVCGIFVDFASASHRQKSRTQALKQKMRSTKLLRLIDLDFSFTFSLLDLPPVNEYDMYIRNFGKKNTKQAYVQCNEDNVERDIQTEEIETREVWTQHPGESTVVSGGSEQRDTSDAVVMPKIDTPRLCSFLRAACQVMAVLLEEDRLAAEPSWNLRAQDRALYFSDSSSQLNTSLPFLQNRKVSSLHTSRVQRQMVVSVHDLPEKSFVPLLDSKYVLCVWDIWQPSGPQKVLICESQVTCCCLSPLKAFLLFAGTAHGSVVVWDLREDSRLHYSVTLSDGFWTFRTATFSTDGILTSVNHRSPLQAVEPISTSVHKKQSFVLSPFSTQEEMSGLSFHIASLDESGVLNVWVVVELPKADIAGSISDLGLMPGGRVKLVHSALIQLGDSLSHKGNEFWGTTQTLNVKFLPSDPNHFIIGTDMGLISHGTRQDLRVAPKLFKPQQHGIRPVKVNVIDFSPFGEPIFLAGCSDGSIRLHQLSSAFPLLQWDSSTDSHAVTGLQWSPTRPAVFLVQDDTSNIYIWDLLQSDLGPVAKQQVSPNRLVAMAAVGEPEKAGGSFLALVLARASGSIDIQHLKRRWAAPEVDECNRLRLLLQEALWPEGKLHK

According to paper PMC11112123:

Target: HA–WDR60 (human) (UniProt Q8WVS4)
Test: affinity purification with mass spectrometry; HA–WDR60 on HA–agarose beads from transfected RPE1 WT and CEP170 KO cells, trypsin digest, TMT labelling; abundance against HA–GFP; three independent experiments

binding: binds
B1: chaperone NUDCD1 (protein, UniProt Q96RS6 1-583)
chain: MEVAANCSLRVKRPLLDPRFEGYKLSLEPLPCYQLELDAAVAEVKLRDDQYTLEHMHAFGMYNYLHCDSWYQDSVYYIDTLGRIMNLTVMLDTALGKPREVFRLPTDLTACDNRLCASIHFSSSTWVTLSDGTGRLYVIGTGERGNSASEKWEIMFNEELGDPFIIIHSISLLNAEEHSIATLLLRIEKEELDMKGSGFYVSLEWVTISKKNQDNKKYEIIKRDILRGKSVPHYAAIEPDGNGLMIVSYKSLTFVQAGQDLEENMDEDISEKIKEPLYYWQQTEDDLTVTIRLPEDSTKEDIQIQFLPDHINIVLKDHQFLEGKLYSSIDHESSTWIIKESNSLEISLIKKNEGLTWPELVIGDKQGELIRDSAQCAAIAERLMHLTSEELNPNPDKEKPPCNAQELEECDIFFEESSSLCRFDGNTLKTTHVVNLGSNQYLFSVIVDPKEMPCFCLRHDVDALLWQPHSSKQDDMWEHIATFNALGYVQASKRDKKFFACAPNYSYAALCECLRRVFIYRQPAPMSTVLYNRKEGRQVGQVAKQQVASLETNDPILGFQATNERLFVLTTKNLFLIKVNTEN

No constants are given. Whether binding was seen depends on the method and setting. Binding seen in cells or lysates may run through a third protein. A yes stands for co-enrichment or nearness to the bait. Other partners may have been found.
